Laboratory results: the supplement of paper PMC10338343
± gives the standard deviation. The list shows a part of the results, in another mix than the full data. Many of these values have a large error.

system: MILI (PIWIL2) piRISC loaded with L1MC piRNA (26 nt); experiment: pre-steady-state target cleavage rate (min^-1); MIWI and MILI are mouse PIWI proteins and EfPiwi is from a freshwater sponge; tags in brackets are library labels; higher = faster piRNA-guided slicing of the target; conditions: guide: L1MC piRNA 5'p-UAACUAAAUACUAUGCAAGCUGUAGG; auxiliary factor: none (no GTSF1)
Procedure, shortened: (§1)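 A transcribed, DNA-blocked target RNA library (0.1 nM) and 1 nM active affinity-purified piRISC bearing one synthetic guide were incubated in HEPES–potassium acetate buffer at 33 °C for 0–8 or 0–960 min, either with or without 500 nM GTSF1 partner protein. Uncleaved targets were sequenced, normalised to depth and to weakly complementary targets, and pooled over three trials, with k3 capped at 0.0001 min^-1. The pre-steady-state cleavage rate was derived with a burst-and-steady-state fit.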

Row | Sequence | pre-steady-state target cleavage rate
1 | UCCUGGAUGAGCUUGCAUAGUCAUUUAGUUA | 0.00202 ± 0.0045
2 | UCCUGGAUCACGAUGCAUAGUAUUUACAAA | 0.000871 ± 0.0068
3 | UCCUCCUACAGCUUGCUAAGUAUUUAGAAA | 0.00126 ± 0.0046
4 | UCCUCCUACAGCUUCGUUAGUAUUUACAAA | 0.000175 ± 0.012
5 | UCCUGGAUGUGCUUGCAUUCAUAAAUCAAA [g13:g20:cont:t1A] | 0.00031 ± 0.014
6 | UCCUGCUACACGAUGCAUAGUAUUUACAAA | 0.000817 ± 0.0076
7 | UCCUCCUACAGCUUGCAAUCUAUUUAGAAA | 0.000626 ± 0.0075
8 | UCCUGGAUGUGCUACGAUAGUAUUUAGAAA | 0.000503 ± 0.0098
9 | UCCUGGAUGUCCUUGCAUAGUUUUUAGUAA | 0.00235 ± 0.0031
10 | UCCUGCUACAGCUUGCAUAGUAAAAACAAA | 0.000901 ± 0.0058
11 | UCCUGGAUGAGCUUGCAUAGUAUAUACAAA | 0.00126 ± 0.0055
12 | UCCUCCUACAGGAUGCAUAGUAUUUAGAAA | 0.00152 ± 0.0034
13 | UCCUGGAUCAGGAUGCAUAGUAUUUAGAAA | 0.00134 ± 0.0037
14 | UCCUCCUACAGCUUGCAUAGUAAAUUCAAA | 0.000994 ± 0.006
15 | UCCUGGUACAGCUUGCAUAGUAUUUGUUA | 0.00253 ± 0.0038
16 | UCCUGGAUGUCCAUGCAUAGUAUUUAGUAA | 0.0023 ± 0.0037
17 | UCCUGCUACACCUUGCAUAGUAUUUUCAAA | 0.00108 ± 0.006
18 | UCCUGCAUCAGCUUGCAUAGUAUUUUCAAA | 0.00135 ± 0.0034
19 | UCCUGCUACAGCUUGCAUAGUAAAAAGUAA | 0.00113 ± 0.0052
20 | UCCUGGAUGUCCUUGCAUAGUAUUUAUGUUA | 0.00105 ± 0.0071

Row | Sequence | pre-steady-state target cleavage rate
21 | UCCUGGAACAGCUUGCAUACAUUUUAGAAA | 0.000666 ± 0.009
22 | UCCUGGAUGUCGUUGCAUAGUAUAUAGAUA | 0.00101 ± 0.0066
23 | UCCUGGUACACCUUCCAUAGUAUUUAGUUA | 0.00141 ± 0.0074
24 | UCCUCCUACAGCUUCCAUAGUAUAUAGUUA | 0.000726 ± 0.0073
25 | UCCUCCUACAGCUUGCAAUGUAUUUAGAAA | 0.00122 ± 0.0049
26 | UCCUCCUACAGCUUGCAUAGUAUUAUGAAA | 0.00121 ± 0.0059
27 | UCCUGGAUCAGCUUGCAUAGUAUUAUCUAA | 0.00184 ± 0.003
28 | UCCUGCUACAGCUUCGAUAGUAUUUAGAAA | 0.000934 ± 0.005
29 | UCCUGCUACAGCUUGCAUAGUUAAUAGAAA | 0.00084 ± 0.0056
30 | UCCUGCUACAGGAUGCAUAGUAUUUACAAA | 0.000678 ± 0.0065
31 | UCCUGGAUGUCGUUGCAUAGUUAAAUCAAA [g10:g18:cont:t1A] | 0.00023 ± 0.019
32 | UCCUGGAUCAGCUUGCAUUGUAUUUACAAA | 0.000332 ± 0.019
33 | UCCUGGAUGUCCUUCCAUAGUAAUUAGUUA | 0.00043 ± 0.011
34 | UCCUGCUACAGCUUGCAUAGUAAAAAGUUA | 0.00195 ± 0.0032
35 | UCCUGGAUGUCCUUGGAUAGAAUUUAGUUA | 0.00175 ± 0.0039
36 | UCCUGCUACAGCUUGCAUAGUAAAUAGUAA | 0.00101 ± 0.0056
37 | UCCUGCUACAGCUUGCAUAGUAUAAACAAA | 0.000636 ± 0.0086
38 | UCCUCCUACAGCAACCAUAGUAUUUUCAAA | 0.000622 ± 0.0078
39 | UCCUCCUACAGCUUGCAUACAAUUUAGUAA | 0.00109 ± 0.0052
40 | UCCUGGAUGUCGAUGCAUAGUAUUUAGUGA | 0.00221 ± 0.0038

system: MIWI (PIWIL1) piRISC loaded with L1MC piRNA (30 nt); experiment: as above; conditions: guide: L1MC piRNA 5'p-UAACUAAAUACUAUGCAAGCUGUAGGUCCU; auxiliary factor: none (no GTSF1)
Procedure, shortened: as §1

Row | Sequence | pre-steady-state target cleavage rate
41 | UCCUGGAUGAGCUUGCAUAGUCAUUUAGUUA | 0.00339 ± 0.0039
42 | UCCUGGAUCACGAUGCAUAGUAUUUACAAA | 0.00115 ± 0.0074
43 | UCCUCCUACAGCUUGCUAAGUAUUUAGAAA | 0.00114 ± 0.0062
44 | UCCUCCUACAGCUUCGUUAGUAUUUACAAA | 0.000361 ± 0.01
45 | UCCUGGAUGUGCUUGCAUUCAUAAAUCAAA [g13:g20:cont:t1A] | 0.000477 ± 0.0095
46 | UCCUGCUACACGAUGCAUAGUAUUUACAAA | 0.000665 ± 0.012
47 | UCCUCCUACAGCUUGCAAUCUAUUUAGAAA | 0.000821 ± 0.0063
48 | UCCUGGAUGUGCUACGAUAGUAUUUAGAAA | 0.000805 ± 0.0088
49 | UCCUGGAUGUCCUUGCAUAGUUUUUAGUAA | 0.00187 ± 0.0036
50 | UCCUGCUACAGCUUGCAUAGUAAAAACAAA | 0.000576 ± 0.0095
51 | UCCUGGAUGAGCUUGCAUAGUAUAUACAAA | 0.00115 ± 0.0065
52 | UCCUCCUACAGGAUGCAUAGUAUUUAGAAA | 0.00118 ± 0.0031
53 | UCCUGGAUCAGGAUGCAUAGUAUUUAGAAA | 0.00126 ± 0.0056
54 | UCCUCCUACAGCUUGCAUAGUAAAUUCAAA | 0.00025 ± 0.014
55 | UCCUGGUACAGCUUGCAUAGUAUUUGUUA | 0.00226 ± 0.0031
56 | UCCUGGAUGUCCAUGCAUAGUAUUUAGUAA | 0.0012 ± 0.0069
57 | UCCUGCUACACCUUGCAUAGUAUUUUCAAA | 0.00169 ± 0.0042
58 | UCCUGCAUCAGCUUGCAUAGUAUUUUCAAA | 0.00218 ± 0.0035
59 | UCCUGCUACAGCUUGCAUAGUAAAAAGUAA | 0.00111 ± 0.0045
60 | UCCUGGAUGUCCUUGCAUAGUAUUUAUGUUA | 0.00166 ± 0.0049

Row | Sequence | pre-steady-state target cleavage rate
61 | UCCUGGAACAGCUUGCAUACAUUUUAGAAA | 0.000916 ± 0.008
62 | UCCUGGAUGUCGUUGCAUAGUAUAUAGAUA | 0.000592 ± 0.012
63 | UCCUGGUACACCUUCCAUAGUAUUUAGUUA | 0.000904 ± 0.0091
64 | UCCUCCUACAGCUUCCAUAGUAUAUAGUUA | 0.0013 ± 0.0057
65 | UCCUCCUACAGCUUGCAAUGUAUUUAGAAA | 0.00128 ± 0.0057
66 | UCCUCCUACAGCUUGCAUAGUAUUAUGAAA | 0.00182 ± 0.0044
67 | UCCUGGAUCAGCUUGCAUAGUAUUAUCUAA | 0.00284 ± 0.0032
68 | UCCUGCUACAGCUUCGAUAGUAUUUAGAAA | 0.000766 ± 0.0075
69 | UCCUGCUACAGCUUGCAUAGUUAAUAGAAA | 0.00164 ± 0.0045
70 | UCCUGCUACAGGAUGCAUAGUAUUUACAAA | 0.000674 ± 0.0067
71 | UCCUGGAUGUCGUUGCAUAGUUAAAUCAAA [g10:g18:cont:t1A] | 0.000555 ± 0.011
72 | UCCUGGAUCAGCUUGCAUUGUAUUUACAAA | 0.00148 ± 0.0054
73 | UCCUGGAUGUCCUUCCAUAGUAAUUAGUUA | 0.000673 ± 0.0083
74 | UCCUGCUACAGCUUGCAUAGUAAAAAGUUA | 0.00138 ± 0.0051
75 | UCCUGGAUGUCCUUGGAUAGAAUUUAGUUA | 0.000712 ± 0.0085
76 | UCCUGCUACAGCUUGCAUAGUAAAUAGUAA | 0.00194 ± 0.0035
77 | UCCUGCUACAGCUUGCAUAGUAUAAACAAA | 0.000396 ± 0.0076
78 | UCCUCCUACAGCAACCAUAGUAUUUUCAAA | 0.000262 ± 0.0098
79 | UCCUCCUACAGCUUGCAUACAAUUUAGUAA | 0.00138 ± 0.0042
80 | UCCUGGAUGUCGAUGCAUAGUAUUUAGUGA | 0.00103 ± 0.0064
